The record followed here is the supplement of paper PMC12889115.

This is one part of the list. These are raw signals, not scaled to a control.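 In the initial screen, polymyxin B was used at a concentration that permeabilizes Salmonella's outer membrane but not its inner membrane. Maximum growth was set by DMSO wells with or without polymyxin B. Since plates varied, data were ranked per plate, and compounds giving the lowest OD600 advanced as hits.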

In the test the test system is Salmonella enterica serovar Typhimurium SL1344. Put plainly: bacterial growth OD600 after 18 h with compound and polymyxin B; higher = more bacterial growth (less inhibition). Particulars: 50 µM, Mueller-Hinton broth.

For `C[C@@H]1CN(C2(C(=O)NC3CCCC3)Cc3ccccc3C2)C[C@H](C)O1`, the “bacterial growth OD600” value (polymyxin B 0.75 µg/mL) turned out to be 0.825.

With `CC(=O)N1CCC(C(=O)Nc2ccc(Oc3ccccc3F)cc2)CC1`, where the note is “polymyxin B 1 µg/mL”, the “bacterial growth OD600” value stood at 0.916.

Regarding `COc1ccccc1CNC(=O)c1c(OC)cc(=O)n2c1CCN(Cc1ccccc1F)CC2`, the “bacterial growth OD600” value (polymyxin B 0.75 µg/mL) came to 0.816.

Consider `O=C(c1cc(-c2ccccc2)n[nH]1)N1CCC(n2c(CCc3ccccc3)nc3cccnc32)CC1`, for which the “bacterial growth OD600” value (polymyxin B 0.75 µg/mL) stood at 0.015.

On to `CC(C)S(=O)(=O)N1CCc2onc(C(c3ccccc3)c3ccccc3)c2C1`, for which, where the note is “polymyxin B 0.75 µg/mL”, the “bacterial growth OD600” value turned out to be 0.491.

In the case of `CN(C(=O)c1ccn(C)n1)C(Cc1ccccc1)C1CCN(Cc2ccc(C#CC(C)(C)O)cc2)CC1` (configuration not stated), under “polymyxin B 0.75 µg/mL”, the “bacterial growth OD600” value worked out at 0.933.

On to `Cc1c(C(C)NC2CCN(Cc3cccnc3)CC2)cnn1-c1ccc(F)cc1F` (configuration not stated), for which the “bacterial growth OD600” value (polymyxin B 1 µg/mL) was 0.982.

Take `O=C(NC1CCC1)c1coc(COc2ccccc2)n1`: the “bacterial growth OD600” value (polymyxin B 1 µg/mL) came to 0.88.

As to `OCC1(CCCc2ccccc2)CCCN(C2CSCCSC2)C1` (configuration not stated), the “bacterial growth OD600” value (polymyxin B 0.75 µg/mL) came to 0.427.

Take `CN(C)S(=O)(=O)N1CCc2[nH]nc(-c3ccccc3F)c2C1`: the “bacterial growth OD600” value (polymyxin B 0.75 µg/mL) stood at 0.819.

Take `COc1ccc(CNC(=O)CCC2CCCN(C(=O)Cc3cccs3)C2)c(OC)c1` (configuration not stated): the “bacterial growth OD600” value (polymyxin B 0.75 µg/mL) came out at 0.812.

As for `Cc1cc(C)n(CC(=O)N2CCc3onc(-c4ccc(F)c(F)c4)c3C2)n1`, the “bacterial growth OD600” value (polymyxin B 0.75 µg/mL) stood at 0.895.

On to `O=C(CC(c1cccc(O)c1)c1ccccc1Cl)N1CCC(O)CC1` (configuration not stated), for which the “bacterial growth OD600” value (polymyxin B 1 µg/mL) was 0.797.

Regarding `Cc1[nH]c2ccccc2c1CC(=O)NCCN1Cc2ccccc2OC(c2ccsc2)C1` (configuration not stated), the “bacterial growth OD600” value (polymyxin B 0.75 µg/mL) amounted to 0.632.

As to `O=C(C1CC1)N1CCCC(CCc2ccccc2)C1` (configuration not stated), where the note is “polymyxin B 0.75 µg/mL”, the “bacterial growth OD600” value was found to be 0.678.

Turning to `CSc1ccccc1C(=O)NCC1Cc2cc(-c3ccccc3C(C)=O)ccc2O1` (configuration not stated), the “bacterial growth OD600” value (polymyxin B 0.75 µg/mL) is 0.003.

`CC(C)n1cc(CN2CCCC2C(=O)Nc2cccc(-n3cccn3)c2)cn1` (configuration not stated): the “bacterial growth OD600” value (polymyxin B 1 µg/mL) is 0.982.

For `COc1cccc(CCC2CCCN(Cc3cnn(C)c3C)C2)c1` (configuration not stated), the “bacterial growth OD600” value (polymyxin B 0.75 µg/mL) worked out at 0.872.

On to `COCCN1CCN(C(=O)CN2Cc3cc(C)ccc3OC(c3ccsc3)C2)CC1` (configuration not stated), for which the “bacterial growth OD600” value (polymyxin B 0.75 µg/mL) was found to be 0.851.

Take `O=C(CCN1Cc2ccccc2OC(c2ccccc2F)C1)NC(c1ccccc1)c1ccncc1` (configuration not stated): where the note is “polymyxin B 0.75 µg/mL”, the “bacterial growth OD600” value turned out to be 0.013.

As for `CCc1nc(C)c(CNC(C)c2cnc(N(C)C3CCCCC3)nc2C)[nH]1` (configuration not stated), where the note is “polymyxin B 0.75 µg/mL”, the “bacterial growth OD600” value worked out at 0.02.

As for `C=CCCC(=O)N1CCC2(CCCN(Cc3ccc(F)cc3)C2=O)C1` (configuration not stated), under “polymyxin B 1 µg/mL”, the “bacterial growth OD600” value came to 1.01.

As for `Cc1cccc(C)c1Oc1ncccc1CNC1CCSCC1`, the “bacterial growth OD600” value (polymyxin B 1 µg/mL) was determined as 0.828.

For `COc1ccc(CN2CCN(Cc3csc(C(C)=O)c3)CC2CCO)c(C)c1C` (configuration not stated), the “bacterial growth OD600” value (polymyxin B 1 µg/mL) came out at 0.81.

For the molecule `O=C1CCC(C(=O)N2CCC(Cn3cccn3)CC2)CN1Cc1cccc(C(F)(F)F)c1` (configuration not stated), under “polymyxin B 1 µg/mL”, the “bacterial growth OD600” value is 0.865.

Consider `COc1cc(=O)n2c(c1C(=O)NCc1cccc(F)c1)CCN(Cc1ccc(NC(C)=O)cc1)CC2`, for which the “bacterial growth OD600” value (polymyxin B 0.75 µg/mL) was determined as 0.876.

As to `CN(C)C1CCN(C(=O)c2cn(C(c3ccccc3)c3ccccc3)nn2)C1` (configuration not stated), the “bacterial growth OD600” value (polymyxin B 1 µg/mL) came out at 0.831.

As for `CCN1CCN(C(=O)CCC2CCN(C(C)Cn3nc(C)cc3C)CC2)CC1` (configuration not stated), the “bacterial growth OD600” value (polymyxin B 1 µg/mL) was 1.06.

As for `COc1ccc(C(=O)N2CCCC(C(=O)c3ccc(Cl)cc3C)C2)c(OC)c1OC` (configuration not stated), for the setting “polymyxin B 1 µg/mL”, the “bacterial growth OD600” value came to 0.666.

On to `CCOC(=O)N1CCN(Cc2nc(-c3cccc(F)c3)oc2C)CC1`, for which, for the setting “polymyxin B 1 µg/mL”, the “bacterial growth OD600” value amounted to 0.786.

Turning to `O=C(c1coc(COc2ccc(F)cc2Cl)n1)N1CCCC1`, for the setting “polymyxin B 1 µg/mL”, the “bacterial growth OD600” value amounted to 0.809.

Consider `C#CCN(CC=C)C(=O)C1CCC(=O)N(CC2CCCCC2)C1` (configuration not stated), for which the “bacterial growth OD600” value (polymyxin B 1 µg/mL) turned out to be 0.915.
